How the values were obtained:
Assay type in all cases: in vivo
[1] = test system: bone cancer rats (MRMT-1 rat mammary gland carcinoma cells injected into the tibia); assay: Bone cancer rat model: weight bearing difference (mechanical hyperalgesia); conditions: morphine group, following treatment; p<0.05
Protocol: Cells were cultured in medium containing RPMI-1640 (Gibco, 500 ml), 10% heat-inactivated fetal bovine serum (Hyclone), L-glutamine (final concentration 2 mM, from Gibco) and antibiotic solution (final concentration 100 U/ml penicillin and 100 ug/ml streptomycin sulfate, from Gibco). Cells were released from the tissue culture flask by brief exposure to 0.1% trypsin so (Gibco) and then prepared for injection as follows: cells were centrifuged for 10 minutes at approximately 1,200 rpm. The resulting pellet was washed twice in Phosphate Buffered Saline (PBS, Mediatech) containing no calcium or magnesium. Final pellet was re-suspended in PBS and cell count taken using a hemocytometer. Cells were diluted to achieve final concentrations for injection and kept on ice until injection was performed. […]
(§1) On days 7, 8, 14 and 15, pain assessment tests were performed. […] The animals were first evaluated for mechanical allodynia and then thermal hyperalgesia. […] The animals were first evaluated for baseline weight bearing responses. […]
After the animals in groups 4-6 were re-randomized to drug treatment groups, on day 9, 15 all animals underwent weight-bearing testing. Weight bearing of affected hind limbs was assessed as the difference in weight borne by the ipsilateral compared to the contralateral limb. […]

[2] = test system: bone cancer rats (MRMT-1 rat mammary gland carcinoma cells injected into the tibia); assay: Bone cancer rat model: Von Frey test of mechanical allodynia; conditions: morphine 5 mg/kg; baseline vs post-dose p<0.01
Protocol: (§2) Cells were cultured in medium containing RPMI-1640 (Gibco, 500 ml), 10% heat-inactivated fetal bovine serum (Hyclone), L-glutamine (final concentration 2 mM, from Gibco) and antibiotic solution (final concentration 100 U/ml penicillin and 100 ug/ml streptomycin sulfate, from Gibco). Cells were released from the tissue culture flask by brief exposure to 0.1% trypsin so (Gibco) and then prepared for injection as follows: cells were centrifuged for 10 minutes at approximately 1,200 rpm. The resulting pellet was washed twice in Phosphate Buffered Saline (PBS, Mediatech) containing no calcium or magnesium. Final pellet was re-suspended in PBS and cell count taken using a hemocytometer. Cells were diluted to achieve final concentrations for injection and kept on ice until injection was performed.
(§3) After one week of quarantine, either culture media or 3×10^4 syngeneic MRMT-1 rat mammary gland carcinoma cells were injected into the medullary cavity of the proximal tibia of each rat. Procedurally, the animal was first anesthetized with ketamine/xylazine and the right leg area shaved and treated with an iodine solution and cleaned with a 70% ethanol solution. […]
as §1

[3] = test system: bone cancer rats (MRMT-1 rat mammary gland carcinoma cells injected into the tibia); assay: Bone cancer rat model: thermal paw stimulation (thermal hyperalgesia); conditions: morphine control group, days 14 and 15; trend to increased latency
Protocol: as §2, §3, §1

CN1CC[C@]23c4c5ccc(O)c4O[C@H]2[C@@H](O)C=C[C@H]3[C@H]1C5 [morphine, reference compound]
amount of weight placed on contralateral paw (weight bearing difference) vs 'cells only' group [1]: significant reduction
effect on the allodynia revealed at baseline testing (Von Frey) [2]: completely reversed the allodynia
latency to paw removal (thermal paw testing), post-treatment [3]: did not show statistical significance

— patent publication US8536137B2, “Methods for treating nucleoside-induced pain” (UCB Pharma GmbH, priority 2004, dated 2013)
